Holding throughout (assay): protein microarray (ProtoArray v5.0), streptavidin-Alexa Fluor 647
Details in all cases: 3'-biotin; 20 mM Tris (pH 7.5), 5 mM MgCl2, 100 mM KCl, 0.1% Tween-20, A/T-rich and random oligonucleotide blockers; temperature not stated; high values mean tight binding

Experiment [1] deals with C4orf16 (human).
Experiment [2] concerns C4orf18 (human).
The subject of experiment [3] is C4orf19 (human).
The test system of experiment [4] is C4orf33 (human).
In experiment [5] the test system is C4orf35 (human).
For experiment [6], the system named is C5AR1 (human).
The subject of experiment [7] is C5orf15 (human).
The subject of experiment [8] is C5orf25 (human).
Experiment [9] relates to C5orf28 (human).
In experiment [10] the test system is C5orf3 (human).
For experiment [11], the system named is C6orf106 (human).
Experiment [12] concerns C6orf108 (human).
Experiment [13] relates to C6orf118 (human).
In experiment [14] the test system is C6orf145 (human).
The subject of experiment [15] is C6orf162 (human).
The test system of experiment [16] is C6orf206 (human).
In experiment [17] the test system is C6orf35 (human).
Experiment [18] deals with C6orf48 (human).
The subject of experiment [19] is C6orf49 (human).
In experiment [20] the test system is C6orf58 (human).

Where “and” joins values, the source holds several entries; their conditions need not be identical. Identical values can stand only once. Some of the results follow.

As to “GGGAGGCTGAGGCAGG [G4-1 biotinylated (PQS2)]”, the binding signal is -0.322 z-score in experiment [1]; -0.327 z-score in experiment [2]; -0.338 z-score in experiment [3]; -0.316 z-score in experiment [4]; -0.356 z-score in [5]; -0.342 z-score in [6]. Besides, the binding signal in experiment [7] was -0.271 z-score; in experiment [8], -0.297 z-score; in experiment [9], -0.312 z-score; in experiment [10] it was -0.342 z-score; in [11], -0.323 z-score and -0.333 z-score; in [12], -0.33 z-score. Moreover, the binding signal in experiment [13] is -0.306 z-score; in experiment [14], -0.331 z-score; in experiment [15] it was -0.321 z-score; in experiment [16] it was -0.322 z-score; in experiment [17], -0.381 z-score; in experiment [18], -0.306 z-score. The binding signal in experiment [19] was -0.363 z-score; in experiment [20] it was -0.325 z-score.

The values above are taken from paper PMC5996148.
